Assay results taken from patent US8735417B2, “Aminopyrimidines as Syk inhibitors” (Merck Sharp & Dohme Corp., priority 2009, dated 2014).
The structures given here were assigned with low confidence; some may be wrong.

Biological target: recombinant human GST-SYK (Homo sapiens, UniProt P43405)
Experiment: Homogeneous Time-Resolved Fluorescence (HTRF) assay for the recombinant human SYK enzyme
Details: read-out: rhSYK Activity (IC50); recombinant human GST-SYK 5 pM, ATP 25 μM, 10-dose titration
Procedure: Homogeneous Time-Resolved Fluorescence (HTRF) Assay for the Recombinant Human SYK Enzyme:
A recombinant GST-hSYK fusion protein was used to measure potency of compounds to inhibit human SYK activity. The recombinant human GST-SYK (Carna Biosciences #08-176) (5 pM final concentration) was incubated with various concentrations of the inhibitor diluted in DMSO (0.1% final concentration) for 10 minutes at room temperature in 15 mM Tris-HCl (pH 7.5), 0.01% tween 20, 2 mM DTT in 384 well plate format. To initiate the reaction the biotinylated substrate peptide (250 nM final concentration) that contains the phosphorylation site for SYK was added with magnesium (5 mM final concentration) and ATP (25 μM final concentration). Final volume of the reaction was 10 μL. Phosphorylation of the peptide was allowed to proceed for 45′ at room temperature. To quench the reaction and detect the phosphorylated product, 2 nM of a Europium-atiti-phosphotyrosine antibody (Perkin Elmer #AD0161) and 70 nM SA-APC (Perkin-Elmer #CR130-100) were added together in 15 mM Tris pH 7.5, 40 mM EDTA, 0.01% tween 20. Final volume of the quenching solution was 10 μL. The resulting HTRF signal was measured after 30 minutes on a EnVision (Perkin-Elmer) reader using a time-resolved fluorescence protocol. […]

IC50: < 100 nM
Structure (SMILES): O=C(O)CNc1ncc(-c2cccc(Nc3nccc(C(F)(F)F)n3)c2)s1
